According to patent US20250049773A1, “INHIBITION OF STEROL RESPONSE ELEMENT BINDING PROTEINS AS ATARGET FOR SELECTIVE ELIMINATION OF SENESCENT CELLS” (Trustees of Tufts College, priority 2021, published 2025):
At least one compound was matched to its structure with a doubt left.

Tested on: IMR-90 fibroblasts
Assay: Selective killing of senescent versus quiescent IMR-90 fibroblasts by SRE-BP activation inhibitors
Assay type: cell-based
Experimental: FIGS. 1A and 1B. SRE-BP activation inhibitors selectively kill senescent cells. IMR-90 fibroblasts were induced to senesce with either 10 Gy of ionizing radiation (IR), 250 nM doxorubicin [SEN(DOXO)], or quiescent vehicle control (QUI) for 24 hours. Media was then replaced with drug-free growth media, and senescence was allowed to develop for 12 days. On day 12, growth media (10% serum) was replaced with quiescence media (0.2% serum+ITS supplement) for 48 hours to induce quiescence in non-senescent cells. On day 14, media was replaced with quiescence media containing increasing doses of fatostatin (A), xanthohumol (B), PF-429242 (C), or 30 micromolar betulin (D). DMSO served as a 0 micromolar vehicle control. \<0.001

CCCc1cc(-c2nc(-c3ccc(C)cc3)cs2)ccn1 [fatostatin]
toxicity to senescent cells versus quiescent cells (3 μM): significantly more toxic to senescent cells than quiescent cells | toxicity to senescent cells versus quiescent cells (10 μM, statistical significance not achieved): also toxic | toxicity to senescent cells versus quiescent cells (30 μM): significantly more toxic to senescent cells than quiescent cells | toxicity to senescent cells versus quiescent cells (100 μM): significantly more toxic to senescent cells than quiescent cells | cell death in senescent cells compared to quiescent cells (IMR-90 fibroblasts, senescent (10 Gy IR or 250 nM doxorubicin) vs quiescent, increasing doses): increased cell death in senescent cells compared to quiescent cells
